Measurements as given in patent US20040067991A1, “Tetrahydrobenzothiazole analogues as neuroprotective agents” (priority 2003, published 2004).
Counter-ions that a name gives are not always drawn. Some entries share one result that the patent states for a list of compounds. At least one compound was matched to its structure with a doubt left. Some compounds share one range, which may span the group rather than tell each member.

tested on: rat hippocampal neurons; assay: Neuronal survival assay in cultured hippocampal neurons treated with camptothecin or etoposide; assay type: cell-based; settings: 100 nM
Description: 2-amino-4,5,6,7-tetrahydrobenzothiazole hydrogen and 1-(4-methylphenyl)-2-(4,5,6,7-tetrahydro-2-imino-3(2H)-benzothiazolyl)-ethanone hydrobromide and their analogues were assessed for their ability to protect rat hippocampal cells in culture from camptothecin ([…]).
Dissociated hippocampal cell cultures were established from embryonic day 18 Sprague-Dawley rats (Harlan, Inc.) as described previously. […] 77:220-28. Cells were grown in polyethyleneimine-coated plastic dishes or 22 m^2 glass coverslips, and incubated in Neurobasal medium containing B27 supplements, 2 mM L-glutamine, 25 mg/ml gentamycin, 1 mM Hepes (Gibco BRL) and 0.001% gentamicin sulfate. All experiments were performed using 9-10 day-old cultures. Camptothecin and etoposide (Signia) were prepared as 500× stocks in DMSO. Neuron survival was quantified by established methods. […] Briefly, viable neurons in premarked fields (10× objective) were counted before experimental treatment and at specified time points thereafter. Neurons with intact neurites of uniform diameter and soma with a smooth round appearance were considered viable. In contrast neurons with fragmented neurites and vacuolated soma were considered non-viable.

Compound	toxicity when only the analogues were put in the cell
2-imino-3-(4′-fluorobenzyl)-4,5,6,7-tetrahydro-3(2H)-benzothiazole hydrobromide [Compound 16]	none of compounds 14, 1, 15, 5×, 6-11, 13, 16 were toxic
Br.Cc1ccc(C(=O)Cn2c3c(sc2=N)CC(C)CC3)cc1 (stereo not shown) [Compound 5×, 1-(4-methylphenyl)-2-(4,5,6,7-tertahydro-2-imino-6-methyl-3(2H)-benzothiazolyl)-ethanone hydrobromide]	none of compounds 14, 1, 15, 5×, 6-11, 13, 16 were toxic
N=c1sc2c(n1Cc1ccccc1)CCCC2 [Compound 14, 3-(phenylmethyl)-4,5,6,7-tetrahydro-2(3H)-benzothiazolimine Hydrobromide]	none of compounds 14, 1, 15, 5×, 6-11, 13, 16 were toxic
Br.N=c1sc2c(n1CC1CC1)CCCC2 [Compound 15, 3-(cyclopropylmethyl)-4,5,6,7-tetrahydro-2(3H)-benzothiazolimine Hydrobromide]	none of compounds 14, 1, 15, 5×, 6-11, 13, 16 were toxic
